Data as given in PubChem BioAssay AID1259308 (NCATS, 2017).
Here is one part, drawn at random, of about 59,000 reagents tested. Of all reagents, about 1,510 (2.6%) were called active. 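Calls use total luciferase alone and ignore viability, so some active siRNAs may act by altering cell number.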 The numbers tell different reagents against one gene apart.

- Assay: 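Genes whose loss raises luciferase production in HEK293 cells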 (primary screen)
- System: human HEK293 embryonic kidney cells stably expressing firefly luciferase (HEK-CMV-Luc2-Hygro)
- Reagents: single siRNA against human genes, 0.8 pmol siRNA per well
- Duration: 72 h
- Detection: 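Reporter luminescence and viable-cell signal on separate replicate plates, given as percent of non-targeting control and median/MAD z-scores, plus per-cell luciferase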
- Direction: total luciferase, z-score and total luciferase, % of control: higher = more reporter protein produced; luciferase per cell, z-score: higher = more reporter output per viable cell; viable cells, % of control: higher = more viable cells
- Active means: 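Active when the median/MAD z-score for overall luciferase is greater than 3; a gene was taken forward for validation with new siRNAs if at least two of its three siRNAs passed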
- Calls: active = raised luciferase; inactive = no rise

gene | reagent no. | total luciferase, z-score | total luciferase, % of control | luciferase per cell, z-score | viable cells, % of control | Outcome
EIF3M (GeneID 10480) | 1 | 0.766 | 97.1 | 1.49 | 73.3 | inactive
EIF3M (GeneID 10480) | 2 | -1.14 | 59.3 | -0.567 | 76.9 | inactive
EIF3M (GeneID 10480) | 3 | -2.28 | 36.5 | -1.33 | 57.8 | inactive
REPS1 (GeneID 85021) | 1 | -0.108 | 79.7 | 0.585 | 76.4 | inactive
REPS1 (GeneID 85021) | 2 | -1.37 | 54.6 | -1.87 | 99.9 | inactive
REPS1 (GeneID 85021) | 3 | 0.291 | 87.7 | 0.907 | 77.2 | inactive
EIF2S2P4 (GeneID 728350) | 1 | 0.0185 | 82.3 | 0.786 | 74.7 | inactive
EIF2S2P4 (GeneID 728350) | 2 | 0.125 | 84.4 | 0.781 | 76.8 | inactive
EIF2S2P4 (GeneID 728350) | 3 | -2.82 | 25.9 | -3.39 | 70.6 | inactive
ZNF510 (GeneID 22869) | 1 | 0.0132 | 82.1 | -0.174 | 96.1 | inactive
ZNF510 (GeneID 22869) | 2 | 0.0634 | 83.1 | -0.0824 | 95 | inactive
ZNF510 (GeneID 22869) | 3 | 0.0761 | 83.4 | 0.105 | 90.7 | inactive
STOX1 (GeneID 219736) | 1 | 0.459 | 91 | 0.413 | 91.2 | inactive
STOX1 (GeneID 219736) | 2 | -0.0737 | 80.4 | 0.0586 | 88.5 | inactive
STOX1 (GeneID 219736) | 3 | -0.158 | 78.7 | 0.0255 | 87.4 | inactive
FST (GeneID 10468) | 1 | 0.372 | 89.3 | 0.357 | 90.8 | inactive
FST (GeneID 10468) | 2 | -0.697 | 68 | -0.885 | 96 | inactive
FST (GeneID 10468) | 3 | -0.181 | 78.3 | -0.592 | 102 | inactive
ZNF30 (GeneID 90075) | 1 | -2.28 | 36.4 | -3.07 | 91.5 | inactive
ZNF30 (GeneID 90075) | 2 | -0.712 | 67.7 | 0.39 | 68.3 | inactive
ZNF30 (GeneID 90075) | 3 | 0.351 | 88.9 | 0.0599 | 97.8 | inactive
TMEM236 (GeneID 653567) | 1 | 0.631 | 94.4 | 0.863 | 84.1 | inactive
TMEM236 (GeneID 653567) | 2 | 0.687 | 95.5 | 0.587 | 91.5 | inactive
TMEM236 (GeneID 653567) | 3 | 0.0838 | 83.6 | -0.374 | 103 | inactive
MEF2A (GeneID 4205) | 1 | -1.03 | 61.5 | -1.32 | 97.3 | inactive
MEF2A (GeneID 4205) | 2 | 0.308 | 88 | 0.314 | 90.6 | inactive
MEF2A (GeneID 4205) | 3 | 0.118 | 84.2 | 0.422 | 84.2 | inactive
PATZ1 (GeneID 23598) | 1 | 1.03 | 102 | 0.619 | 97.1 | inactive
PATZ1 (GeneID 23598) | 2 | 0.337 | 88.6 | 0.324 | 90.9 | inactive
PATZ1 (GeneID 23598) | 3 | -0.752 | 66.9 | -0.335 | 81.7 | inactive
CD19 (GeneID 930) | 1 | 0.583 | 93.5 | 0.318 | 96.1 | inactive
CD19 (GeneID 930) | 2 | -0.236 | 77.2 | -0.491 | 98.2 | inactive
CD19 (GeneID 930) | 3 | -1.34 | 55.3 | -0.778 | 75.8 | inactive

Not a retest: an excerpt of the list.
gene | reagent no. | total luciferase, z-score | total luciferase, % of control | luciferase per cell, z-score | viable cells, % of control | Outcome
MEF2A (GeneID 4205) | 1 | -1.03 | 61.5 | -1.32 | 97.3 | inactive
MEF2A (GeneID 4205) | 2 | 0.308 | 88 | 0.314 | 90.6 | inactive
MEF2A (GeneID 4205) | 3 | 0.118 | 84.2 | 0.422 | 84.2 | inactive
PATZ1 (GeneID 23598) | 1 | 1.03 | 102 | 0.619 | 97.1 | inactive
PATZ1 (GeneID 23598) | 2 | 0.337 | 88.6 | 0.324 | 90.9 | inactive

The list goes on:
gene | reagent no. | total luciferase, z-score | total luciferase, % of control | luciferase per cell, z-score | viable cells, % of control | Outcome
HECW1 (GeneID 23072) | 1 | -0.339 | 75.1 | -0.279 | 90.4 | inactive
HECW1 (GeneID 23072) | 2 | -0.134 | 79.2 | -0.443 | 99.5 | inactive
HECW1 (GeneID 23072) | 3 | -0.573 | 70.5 | -0.994 | 102 | inactive
TRIM41 (GeneID 90933) | 1 | -0.0905 | 80.1 | -0.646 | 106 | inactive
TRIM41 (GeneID 90933) | 2 | 0.646 | 94.7 | 0.803 | 85.7 | inactive
TRIM41 (GeneID 90933) | 3 | 0.857 | 98.9 | 0.665 | 92.8 | inactive
PDE7B-AS1 (GeneID 644135) | 1 | 1.97 | 121 | 1.55 | 90 | inactive
PDE7B-AS1 (GeneID 644135) | 2 | 0.477 | 91.4 | -0.117 | 105 | inactive
PDE7B-AS1 (GeneID 644135) | 3 | -0.317 | 75.6 | -0.375 | 93.2 | inactive
SYTL3 (GeneID 94120) | 1 | -0.141 | 79.1 | -0.0153 | 88.7 | inactive
SYTL3 (GeneID 94120) | 2 | -0.629 | 69.4 | -0.805 | 95.8 | inactive
SYTL3 (GeneID 94120) | 3 | -0.657 | 68.8 | -0.531 | 88.4 | inactive
TMOD3 (GeneID 29766) | 1 | -0.197 | 78 | 1.26 | 62.5 | inactive
TMOD3 (GeneID 29766) | 2 | -1.33 | 55.4 | -0.834 | 77.2 | inactive
TMOD3 (GeneID 29766) | 3 | -0.271 | 76.5 | -0.943 | 110 | inactive
LOC644285 (GeneID 644285) | 1 | 0.968 | 101 | 0.822 | 91 | inactive
LOC644285 (GeneID 644285) | 2 | 0.792 | 97.6 | 2.76 | 52.8 | inactive
LOC644285 (GeneID 644285) | 3 | 1.74 | 116 | 1.54 | 86.8 | inactive
PRLR (GeneID 5618) | 1 | -0.671 | 68.5 | -0.898 | 97 | inactive
PRLR (GeneID 5618) | 2 | -0.177 | 78.4 | -0.29 | 94.5 | inactive
PRLR (GeneID 5618) | 3 | -1.34 | 55.2 | -1.71 | 96.9 | inactive
OR13A1 (GeneID 79290) | 1 | -0.724 | 67.5 | -0.664 | 89.8 | inactive
OR13A1 (GeneID 79290) | 2 | -0.644 | 69.1 | -0.278 | 83 | inactive
OR13A1 (GeneID 79290) | 3 | -0.842 | 65.1 | -0.184 | 76.4 | inactive
